Reference: publication PMC5493754
No constants are given. Whether binding was seen depends on the method and setting. For some assays here: Where a sequence is shown, tags or fusion partners need not be part of it.

Sequences of proteins named here, by UniProt entry; tags and fusion partners are left off. Residues count along the entry.
UniProt Q13402, residues 1702-2215: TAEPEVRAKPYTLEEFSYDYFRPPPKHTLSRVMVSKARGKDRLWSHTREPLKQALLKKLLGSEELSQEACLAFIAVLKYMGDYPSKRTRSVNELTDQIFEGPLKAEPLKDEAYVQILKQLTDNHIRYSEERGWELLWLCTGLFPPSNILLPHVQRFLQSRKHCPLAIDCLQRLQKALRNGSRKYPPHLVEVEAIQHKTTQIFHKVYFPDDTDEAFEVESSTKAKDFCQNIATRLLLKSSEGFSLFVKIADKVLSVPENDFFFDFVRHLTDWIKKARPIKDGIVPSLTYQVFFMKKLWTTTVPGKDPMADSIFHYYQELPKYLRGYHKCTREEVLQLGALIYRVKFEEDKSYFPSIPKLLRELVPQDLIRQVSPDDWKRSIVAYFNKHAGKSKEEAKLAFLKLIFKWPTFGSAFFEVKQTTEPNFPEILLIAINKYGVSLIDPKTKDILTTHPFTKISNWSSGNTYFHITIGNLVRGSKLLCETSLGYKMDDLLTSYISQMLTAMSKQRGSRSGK
UniProt Q6PIF6, residues 1605-2116: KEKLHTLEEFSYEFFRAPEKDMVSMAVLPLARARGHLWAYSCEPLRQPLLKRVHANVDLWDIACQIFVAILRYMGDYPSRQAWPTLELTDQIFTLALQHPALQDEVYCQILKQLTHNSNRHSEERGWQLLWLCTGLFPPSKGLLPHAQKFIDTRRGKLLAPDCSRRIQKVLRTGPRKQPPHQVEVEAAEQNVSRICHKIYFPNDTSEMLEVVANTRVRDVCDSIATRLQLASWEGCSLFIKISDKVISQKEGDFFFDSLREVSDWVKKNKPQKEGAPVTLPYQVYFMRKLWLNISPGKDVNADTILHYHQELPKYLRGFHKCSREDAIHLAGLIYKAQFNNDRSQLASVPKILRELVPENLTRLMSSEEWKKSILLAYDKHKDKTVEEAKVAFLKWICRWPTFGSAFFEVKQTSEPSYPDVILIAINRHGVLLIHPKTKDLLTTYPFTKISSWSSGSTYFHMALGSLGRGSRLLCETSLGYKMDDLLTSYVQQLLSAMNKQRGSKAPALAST

How the values were obtained:
[1] = target: T1, YFP-Full length (FL)-harmonin (harmonin-a1) (human) (UniProt Q9Y6N9); assay: MST; as a1 but 150 mM NaCl (for FL-Harmonin-a); YFP-fused partner constant at 100 nM, non-fluorescent protein titrated; both purified
T1 sequence: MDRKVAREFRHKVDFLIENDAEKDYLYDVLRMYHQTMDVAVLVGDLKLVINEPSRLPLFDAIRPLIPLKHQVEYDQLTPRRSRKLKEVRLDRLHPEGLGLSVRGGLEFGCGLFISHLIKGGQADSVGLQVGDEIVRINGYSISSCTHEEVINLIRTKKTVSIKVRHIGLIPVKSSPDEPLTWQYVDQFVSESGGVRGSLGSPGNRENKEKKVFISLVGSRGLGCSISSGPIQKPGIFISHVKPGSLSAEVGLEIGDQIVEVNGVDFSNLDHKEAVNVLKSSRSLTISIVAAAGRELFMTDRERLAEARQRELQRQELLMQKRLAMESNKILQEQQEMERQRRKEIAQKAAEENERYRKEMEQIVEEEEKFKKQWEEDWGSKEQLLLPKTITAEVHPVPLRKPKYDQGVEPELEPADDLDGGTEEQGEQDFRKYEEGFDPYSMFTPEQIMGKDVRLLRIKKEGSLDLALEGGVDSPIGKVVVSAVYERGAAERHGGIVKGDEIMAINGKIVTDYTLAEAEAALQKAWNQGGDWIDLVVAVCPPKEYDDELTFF

[2] = target: YFP-Myosin 7a MF2 (human) (UniProt Q13402); assay: MST; YFP-fused partner constant at 100 nM, non-fluorescent protein titrated (16 two-fold dilutions); 20 mM Hepes pH 7.0, 100 mM NaCl, 1 mM EGTA, 0.5 mM TCEP, 0.05% Tween 20; Monolith NT.115; both purified
[3] = target: YFP-Myosin 7b MF2 (human) (UniProt Q6PIF6); assay: as above
[4] = target: T2, YFP-Harmonin NPDZ1.PDZ2 (human) (UniProt Q9Y6N9); assay: as above
T2 sequence: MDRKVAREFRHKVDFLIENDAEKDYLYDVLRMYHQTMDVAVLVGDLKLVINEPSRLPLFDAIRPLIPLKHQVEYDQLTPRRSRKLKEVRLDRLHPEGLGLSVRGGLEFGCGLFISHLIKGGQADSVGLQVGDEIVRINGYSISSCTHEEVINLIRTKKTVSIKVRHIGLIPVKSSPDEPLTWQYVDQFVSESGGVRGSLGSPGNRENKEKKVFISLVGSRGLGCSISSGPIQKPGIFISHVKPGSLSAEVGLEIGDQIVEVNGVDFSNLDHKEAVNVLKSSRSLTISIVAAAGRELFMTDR

[5] = target: T3, YFP-FL-harmonin-ΔCter (human) (UniProt Q9Y6N9); assay: MST; as a1 but 150 mM NaCl (for FL-Harmonin-a); YFP-fused partner constant at 100 nM, non-fluorescent protein titrated; both purified
T3 sequence: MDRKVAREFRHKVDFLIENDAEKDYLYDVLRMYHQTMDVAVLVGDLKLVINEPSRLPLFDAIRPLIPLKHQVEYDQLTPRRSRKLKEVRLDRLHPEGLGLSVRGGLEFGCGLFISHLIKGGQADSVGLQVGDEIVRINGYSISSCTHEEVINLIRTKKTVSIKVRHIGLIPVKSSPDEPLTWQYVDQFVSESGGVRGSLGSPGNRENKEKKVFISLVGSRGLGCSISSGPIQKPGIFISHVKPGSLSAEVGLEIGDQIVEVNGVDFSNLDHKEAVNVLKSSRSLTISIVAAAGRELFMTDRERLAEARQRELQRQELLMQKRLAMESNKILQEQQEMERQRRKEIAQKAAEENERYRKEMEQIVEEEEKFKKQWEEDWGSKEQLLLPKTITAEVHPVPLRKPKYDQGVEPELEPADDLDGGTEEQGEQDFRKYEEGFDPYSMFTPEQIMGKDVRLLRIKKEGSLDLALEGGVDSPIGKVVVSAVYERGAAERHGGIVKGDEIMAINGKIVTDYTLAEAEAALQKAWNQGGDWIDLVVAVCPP

[6] = target: T2, YFP-Harmonin NPDZ1.PDZ2 (human); assay: as above
[7] = target: YFP-Myosin 7a MF2 (human) (UniProt Q13402); assay: as above
[8] = target: YFP-Myosin 7b MF2 (human) (UniProt Q6PIF6); assay: as above
Myosin 7a MF2 (human) = Myosin 7a MF2 (human) (UniProt Q13402); assay: ITC; Microcal iTC200, 10 °C; 20 mM HEPES pH 7.0, 100 mM NaCl, 0.5 mM TCEP, 1 mM EGTA; single binding site model; GST removed from harmonin; both purified
Myosin 7b MF2 (human) = Myosin 7b MF2 (human) (UniProt Q6PIF6); assay: as above
[9] = target: T4, YFP-Harmonin-a PDZ3c (human) (UniProt Q9Y6N9); assay: MST; YFP-fused partner constant at 100 nM, non-fluorescent protein titrated (16 two-fold dilutions); 20 mM Hepes pH 7.0, 100 mM NaCl, 1 mM EGTA, 0.5 mM TCEP, 0.05% Tween 20; Monolith NT.115; both purified
T4 sequence: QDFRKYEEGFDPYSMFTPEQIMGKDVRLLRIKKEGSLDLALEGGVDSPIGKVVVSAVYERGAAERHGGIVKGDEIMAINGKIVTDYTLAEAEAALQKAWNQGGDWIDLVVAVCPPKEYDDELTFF

Row | binding [1] | binding [2] | binding [3] | binding [4] | other results | Binder
1 | no binding | no binding | no binding | – | – | Harmonin-a PDZ3c D546R-F551V-F552V (as used in MST) (domain or fragment, UniProt Q9Y6N9-1 428-552) QDFRKYEEGFDPYSMFTPEQIMGKDVRLLRIKKEGSLDLALEGGVDSPIGKVVVSAVYERGAAERHGGIVKGDEIMAINGKIVTDYTLAEAEAALQKAWNQGGDWIDLVVAVCPPKEYRDELTVV
2 | no binding | no binding | no binding | no binding | – | Harmonin-a PDZ3c_(ΔCter) (domain or fragment, UniProt Q9Y6N9-1 428-542) QDFRKYEEGFDPYSMFTPEQIMGKDVRLLRIKKEGSLDLALEGGVDSPIGKVVVSAVYERGAAERHGGIVKGDEIMAINGKIVTDYTLAEAEAALQKAWNQGGDWIDLVVAVCPP
3 | – | no binding | no binding | – | – | Harmonin NPDZ1.PDZ2 (domain or fragment, UniProt Q9Y6N9-1 1-301) MDRKVAREFRHKVDFLIENDAEKDYLYDVLRMYHQTMDVAVLVGDLKLVINEPSRLPLFDAIRPLIPLKHQVEYDQLTPRRSRKLKEVRLDRLHPEGLGLSVRGGLEFGCGLFISHLIKGGQADSVGLQVGDEIVRINGYSISSCTHEEVINLIRTKKTVSIKVRHIGLIPVKSSPDEPLTWQYVDQFVSESGGVRGSLGSPGNRENKEKKVFISLVGSRGLGCSISSGPIQKPGIFISHVKPGSLSAEVGLEIGDQIVEVNGVDFSNLDHKEAVNVLKSSRSLTISIVAAAGRELFMTDR
4 | – | – | – | – | binding [5]: no binding; binding [6]: no binding; binding [7]: no binding; binding [8]: no binding | FL-harmonin-ΔCter (domain or fragment, UniProt Q9Y6N9-1 1-542) MDRKVAREFRHKVDFLIENDAEKDYLYDVLRMYHQTMDVAVLVGDLKLVINEPSRLPLFDAIRPLIPLKHQVEYDQLTPRRSRKLKEVRLDRLHPEGLGLSVRGGLEFGCGLFISHLIKGGQADSVGLQVGDEIVRINGYSISSCTHEEVINLIRTKKTVSIKVRHIGLIPVKSSPDEPLTWQYVDQFVSESGGVRGSLGSPGNRENKEKKVFISLVGSRGLGCSISSGPIQKPGIFISHVKPGSLSAEVGLEIGDQIVEVNGVDFSNLDHKEAVNVLKSSRSLTISIVAAAGRELFMTDRERLAEARQRELQRQELLMQKRLAMESNKILQEQQEMERQRRKEIAQKAAEENERYRKEMEQIVEEEEKFKKQWEEDWGSKEQLLLPKTITAEVHPVPLRKPKYDQGVEPELEPADDLDGGTEEQGEQDFRKYEEGFDPYSMFTPEQIMGKDVRLLRIKKEGSLDLALEGGVDSPIGKVVVSAVYERGAAERHGGIVKGDEIMAINGKIVTDYTLAEAEAALQKAWNQGGDWIDLVVAVCPP
5 | – | – | – | – | binding (Myosin 7a MF2 (human)): no binding; binding (Myosin 7b MF2 (human)): no binding | Harmonin-b3 PDZ3c_(isoB) (GST removed, as used in ITC) (domain or fragment, UniProt Q9Y6N9-5 728-899) QDFRKYEEGFDPYSMFTPEQIMGKDVRLLRIKKEGSLDLALEGGVDSPIGKVVVSAVYERGAAERHGGIVKGDEIMAINGKIVTDYTLAEAEAALQKAWNQGGDWIDLVVAVCPPKEYDDELASLPSSVAESPQPVRKLLEDRAAVHRHGFLLQLEPTDLLLKSKRGNQIHR
6 | no binding | no binding | – | no binding | binding [5]: no binding | Harmonin-a PDZ3c F551V-F552V (domain or fragment, UniProt Q9Y6N9-1 428-552) QDFRKYEEGFDPYSMFTPEQIMGKDVRLLRIKKEGSLDLALEGGVDSPIGKVVVSAVYERGAAERHGGIVKGDEIMAINGKIVTDYTLAEAEAALQKAWNQGGDWIDLVVAVCPPKEYDDELTVV
7 | – | – | – | – | binding [9]: no binding | Harmonin-a PDZ2-end (domain or fragment, UniProt Q9Y6N9-1 194-552) GVRGSLGSPGNRENKEKKVFISLVGSRGLGCSISSGPIQKPGIFISHVKPGSLSAEVGLEIGDQIVEVNGVDFSNLDHKEAVNVLKSSRSLTISIVAAAGRELFMTDRERLAEARQRELQRQELLMQKRLAMESNKILQEQQEMERQRRKEIAQKAAEENERYRKEMEQIVEEEEKFKKQWEEDWGSKEQLLLPKTITAEVHPVPLRKPKYDQGVEPELEPADDLDGGTEEQGEQDFRKYEEGFDPYSMFTPEQIMGKDVRLLRIKKEGSLDLALEGGVDSPIGKVVVSAVYERGAAERHGGIVKGDEIMAINGKIVTDYTLAEAEAALQKAWNQGGDWIDLVVAVCPPKEYDDELTFF
8 | – | – | – | no binding | – | Harmonin-b3 PDZ3c_(isoB) (as used in MST) (domain or fragment, UniProt Q9Y6N9-5 728-899) QDFRKYEEGFDPYSMFTPEQIMGKDVRLLRIKKEGSLDLALEGGVDSPIGKVVVSAVYERGAAERHGGIVKGDEIMAINGKIVTDYTLAEAEAALQKAWNQGGDWIDLVVAVCPPKEYDDELASLPSSVAESPQPVRKLLEDRAAVHRHGFLLQLEPTDLLLKSKRGNQIHR
9 | – | – | – | – | binding (Myosin 7b MF2 (human)): no binding | Harmonin-a PDZ3c D546R-F551V-F552V (GST removed, as used in ITC) (domain or fragment, UniProt Q9Y6N9-1 428-552) QDFRKYEEGFDPYSMFTPEQIMGKDVRLLRIKKEGSLDLALEGGVDSPIGKVVVSAVYERGAAERHGGIVKGDEIMAINGKIVTDYTLAEAEAALQKAWNQGGDWIDLVVAVCPPKEYRDELTVV
10 | – | no binding | – | – | – | Harmonin-a PDZ3c D546R (domain or fragment, UniProt Q9Y6N9-1 428-552) QDFRKYEEGFDPYSMFTPEQIMGKDVRLLRIKKEGSLDLALEGGVDSPIGKVVVSAVYERGAAERHGGIVKGDEIMAINGKIVTDYTLAEAEAALQKAWNQGGDWIDLVVAVCPPKEYRDELTFF
